The series relates to Hep2 cells. Briefly: Cell viability staining with Alamar Blue (cytotoxicity CC50), Hep2. The format is cell-based, human. The following applies: R6 = F, hep2 CC50 over MRSA MIC. How it is done:
To determine whether the microcidal effect observed against S. aureus and E. coli is specific to bacterial cells, compounds are screened for cell viability effects on several human cell types.
Optimal cell density is first determined by plating cells in a 96-well plate standard sterile tissue culture plates in 100 μl media, 10% FBS at six cell densities from 500 cells/well to 15,000 cells/well. A cell free well containing only media is used as a control. Cells are incubated at 37° C. in a 5% CO2 incubator for 24 hours. 10% culture volume (10 ul) of Alamar Blue (Biosource, DAL1100, 100 mL) is then added. Cells are incubated at 37° C. in a 5% CO2 incubator and read in a Victor V plate reader, 544 nm excitation, 590 nm emission, at 3, 4, and 24 hours after the addition of Alamar Blue. The cell number vs. change in fluorescence is plotted to determine linearity of signal vs. cell number. The optimal density varies between 500-15,000 cells/well depending on the specific cell type. The optimal density is selected based on the highest number of cells that is still in the linear response range.
Determination of Compound Cytotoxicity
Cells are plated at optimal cell density in a standard sterile tissue culture 96 well plate, and incubated at 37° C. O/N in a 5% CO2 incubator. 12 to 48 hours post-plating media is removed. The cells are washed 1 or 2 times with 1×PBS and replaced with fresh media containing the test compound in 1% DMSO. 24 to 72 hours after addition of compound, the media is removed, and the cells washed 1 to 2 times with 1×PBS. Fresh media containing 1/10 volume of Alamar Blue is then added. Plates are incubated 4 hours at 37° C. in a 5% CO2 incubator and read in a Victor V plate reader, 544 nm excitation, 590 nm emission.
Compounds are diluted to 20 micromolar in 1% DMSO and media and screened in duplicate to obtain single concentration cytotoxicity data. Eight concentration points from 0.78 micromolar to 100 micromolar, run in duplicate, are used to determine cyclotoxicity CC50 values. Cells with 1% DMSO and media are used as a negative control, compounds having a known CC50 against a particular cell type are used as positive controls.
The change in fluorescence vs. concentration of test compound is plotted to determine the cytotoxicity of the compound.
Sample media conditions, optimal plating densities, and positive control compounds for two cell types screened are presented in Table III.

Where a name gives a salt, the structure may show the parent alone.

For the setting “R8 = Methoxy compounds”, `COc1c(N2CCNCC2)c(F)cc2c(=O)c3c(=O)[nH]sc3n(C3CC3)c12` [Compound 38, 9-cyclopropyl-6-fluoro-8-methoxy-7-(piperazin-1-yl)isothia-zolo[5,4-b]quinoline-3,4(2H,9H)-dione] registered a CC50/MIC of 7.1. Same read-out and setting: the result for `COc1c(N2CC3CCCNC3C2)c(F)cc2c(=O)c3c(=O)[nH]sc3n(C3CC3)c12` (stereo not drawn) [Compound 45, 9-cyclopropyl-6-fluoro-8-methoxy-7-(octahydro-pyrrolo[3,4-b]pyridin-6-yl)isothia-zolo[5,4-b]quinoline-3,4(2H,9H)-dione, hydrochloride] reads 46.5. For the setting “R8 = H compounds”, `O=c1[nH]sc2c1c(=O)c1cc(F)c(N3CC4CCCNC4C3)cc1n2C1CC1` (stereo not drawn) [Compound 46, 9-cyclopropyl-6-fluoro-7-(octahydro-pyrrolo[3,4-b]pyridin-6-yl)isothia-zolo[5,4-b]quinoline-3,4(2H,9H)-dione, hydrochloride] returned a CC50/MIC of 1.2. In the case of `COc1c(N2CCC(N(C)C)C2)c(F)cc2c(=O)c3c(=O)[nH]sc3n(C3CC3)c12` (stereo not drawn) [Compound 49, 9-cyclopropyl-7-(3-(dimethyl-amino)pyrrolidin-1-yl)-6-fluoro-8-methoxy-isothiazolo[5,4-b]quinoline-3,4(2H,9H)-dione], the CC50/MIC (R8 = Methoxy compounds) is 17.0. Under “R8 = H compounds”, `CC(C)(N)[C@@H]1CCN(c2cc3c(cc2F)c(=O)c2c(=O)[nH]sc2n3C2CC2)C1` [Compound 52, (R)-7-(3-(2-aminopropan-2-yl)pyrrolidin-1-yl)-9-cyclopropyl-6-fluoroisothia-zolo[5,4-b]quinoline-3,4(2H,9H)-dione, hydrochloride] gave a CC50/MIC of 1.4. Where the note is “R8 = Methoxy compounds”, `COc1c(N2CC[C@@H](C(C)(C)N)C2)c(F)cc2c(=O)c3c(=O)[nH]sc3n(C3CC3)c12` [Compound 53, (R)-7-(3-(2-aminopropan-2-yl)pyrrolidin-1-yl)-9-cyclopropyl-6-fluoro-8-methoxyiso-thiazolo[5,4-b]quinoline-3,4(2H,9H)-dione] came in with a CC50/MIC of 85.0. Under “R8 = Methoxy compounds”, `COc1c(N2CC[C@H](C(C)(C)N)C2)c(F)cc2c(=O)c3c(=O)[nH]sc3n(C3CC3)c12` [Compound 58, (S)-7-(3-(2-aminopropan-2-yl)pyrrolidin-1-yl)-9-cyclopropyl-6-fluoro-8-methoxyiso-thiazolo[5,4-b]quinoline-3,4(2H,9H)-dione] showed a CC50/MIC of 40.7. The compound `CC(C)(N)[C@H]1CCN(c2cc3c(cc2F)c(=O)c2c(=O)[nH]sc2n3C2CC2)C1` [Compound 61, (S)-7-(3-(2-aminopropan-2-yl)pyrrolidin-1-yl)-9-cyclopropyl-6-fluoroiso-thiazolo[5,4-b]quinoline-3,4(2H,9H)-dione] had a CC50/MIC (R8 = H compounds) of 0.4. As for `COc1c(N2CC[C@@H](CN)C2)c(F)cc2c(=O)c3c(=O)[nH]sc3n(C3CC3)c12` [Compound 63, (S)-7-(3-(aminomethyl)-pyrrolidin-1-yl)-9-cyclopropyl-6-fluoro-8-methoxyiso-thiazolo[5,4-b]quinoline-3,4(2H,9H)-dione], for the setting “R8 = Methoxy compounds”, the CC50/MIC stood at 26.2. Consider `NC[C@@H]1CCN(c2cc3c(cc2F)c(=O)c2c(=O)[nH]sc2n3C2CC2)C1` [Compound 64, (S)-7-(3-(aminomethyl)-pyrrolidin-1-yl)-9-cyclopropyl-6-fluoroiso-thiazolo[5,4-b]quinoline-3,4(2H,9H)-dione], for which, where the note is “R8 = H compounds”, the CC50/MIC amounted to 3.1. The compound `COc1c(N2CC[C@H](CN)C2)c(F)cc2c(=O)c3c(=O)[nH]sc3n(C3CC3)c12` [Compound 67, (R)-7-(3-(aminomethyl)-pyrrolidin-1-yl)-9-cyclopropyl-6-fluoro-8-methoxyiso-thiazolo[5,4-b]quinoline-3,4(2H,9H)-dione] came in with a CC50/MIC (R8 = Methoxy compounds) of 44.0. The compound `NC[C@H]1CCN(c2cc3c(cc2F)c(=O)c2c(=O)[nH]sc2n3C2CC2)C1` [Compound 68, (R)-7-(3-(aminomethyl)-pyrrolidin-1-yl)-9-cyclopropyl-6-fluoroiso-thiazolo[5,4-b]quinoline-3,4(2H,9H)-dione] had a CC50/MIC (R8 = H compounds) of 2.3.

Turning to `CNC(C)(C)[C@@H]1CCN(c2c(F)cc3c(=O)c4c(=O)[nH]sc4n(C4CC4)c3c2OC)C1` [Compound 76, (R)-9-cyclo-propyl-6-fluoro-8-methoxy-7-(3-(2-(methyl-amino)propan-2-yl)pyrrolidin-1-yl)isothia-zolo[5,4-b]quinoline-3,4(2H,9H)-dione], where the note is “R8 = Methoxy compounds”, the CC50/MIC was determined as 216.0. For the compound `CNC(C)(C)[C@@H]1CCN(c2cc3c(cc2F)c(=O)c2c(=O)[nH]sc2n3C2CC2)C1` [Compound 80, (R)-9-cyclo-propyl-6-fluoro-7-(3-(2-(methylamino)propan-2-yl)-pyrrolidin-1-yl)isothia-zolo[5,4-b]quinoline-3,4(2H,9H)-dione], the CC50/MIC (R8 = H compounds) worked out at 0.3. As to `CN(C)C1CCN(c2cc3c(cc2F)c(=O)c2c(=O)[nH]sc2n3C2CC2)C1` (stereo not drawn) [Compound 114, 9-cyclo-propyl-7-(3-(dimethyl-amino)pyrrolidin-1-yl)-6-fluoroiso-thiazolo[5,4-b]quinoline-3,4(2H,9H)-dione], the CC50/MIC (R8 = H compounds) was determined as 1.5.

Values taken from patent US8044204B2, “8-methoxy-9H-isothiazolo[5,4-b]quinoline-3,4-diones and related compounds as anti-infective agents” (Achillion Pharmaceuticals, Inc., priority 2005, dated 2011).
